Measurements reported in PubChem BioAssay AID743121 (NCATS, 2013).
Aim: 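Knock-downs that sensitise breast cancer cells to camptothecin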 (primary screen). Cells: MDA-MB-231 cells, a human breast cancer line. Knock-down reagent: single siRNA against human genes, 20 nM siRNA (0.8 pmol per well). Time to read-out: 120 h (drug added 48 h after transfection, read 72 h later). Treatment: camptothecin 20 nM (about EC30) for 72 h; vehicle 0.1% DMSO in parallel plates. Measurement: 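Cell viability by ATP luminescence (CellTiter-Glo) as % of non-targeting siRNA wells, and the log2 ratio of viability without drug over viability with camptothecin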. Reading the numbers: log2 vehicle/camptothecin viability: higher = stronger sensitisation to camptothecin; viability with camptothecin and viability without drug: higher = more viable cells. Rule for the call: 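Each gene scored by redundant siRNA activity (RSA) over its individual siRNA ratios; a gene is called active at p < 0.001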.
In all, the deposit lists about 26,000 reagents; this is a part drawn at random. 167 of them (0.63%) were called active. 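Calls are per gene from RSA p-values that are not deposited; an individual active-marked siRNA can sensitise only weakly.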 Reagents against one gene are numbered here.

target gene	siRNA no.	log2 vehicle/camptothecin viability	viability with camptothecin (% of control)	viability without drug (% of control)	outcome
ITGAE	1	0.191	87.9	100	inactive
ITGAE	2	-0.116	92.9	85.7	inactive
ITGAE	3	0.107	74.1	79.8	inactive
ITGAE	4	-0.236	73.5	62.4	inactive
WARS1	1	-0.0192	94.2	92.9	inactive
WARS1	2	0.0201	96.2	97.5	inactive
WARS1	3	-0.465	56.5	40.9	inactive
WARS1	4	-0.509	74.3	52.2	inactive
OLIG1	1	-0.0667	95.9	91.6	inactive
OLIG1	2	-0.299	121	98.2	inactive
OLIG1	3	-0.65	80	51	inactive
OLIG1	4	0.0161	90	91.1	inactive
SLC12A2	1	-0.00204	101	100	inactive
SLC12A2	2	-0.0733	91.3	86.8	inactive
SLC12A2	3	0.0669	26.5	27.8	inactive
SLC12A2	4	-0.208	35.2	30.5	inactive
FBXO17	1	0.725	23.8	39.3	inactive
FBXO17	2	-0.219	81.3	69.9	inactive
FBXO17	3	-0.0674	79.3	75.6	inactive
FBXO17	4	0.25	95.8	114	inactive
CDHR1	1	-0.287	65.5	53.7	inactive
CDHR1	2	-0.151	40.6	36.6	inactive
CDHR1	3	-0.13	104	95	inactive
ANPEP	1	-0.473	29.7	21.4	inactive
ANPEP	2	-0.837	78.8	44.2	inactive
ANPEP	3	-0.317	86.3	69.2	inactive
ADGRG4	1	-0.065	91.6	87.6	inactive
ADGRG4	2	0.0775	89	93.9	inactive
ADGRG4	3	0.0759	64.1	67.5	inactive
ADGRG4	4	-0.118	35.4	32.6	inactive
EXOC7	1	-0.0438	96.7	93.8	inactive
EXOC7	2	-0.412	114	85.4	inactive
EXOC7	3	-0.526	77.4	53.8	inactive
EXOC7	4	-0.0291	56.4	55.3	inactive
PDE3B	1	-0.229	119	101	inactive
PDE3B	2	0.0155	59.1	59.8	inactive
PDE3B	3	-0.128	55.1	50.5	inactive
PDE3B	4	-0.476	67.8	48.7	inactive
LNPEP	1	-0.108	65.7	61	inactive
LNPEP	2	-0.171	110	97.3	inactive
LNPEP	3	-0.532	65.9	45.6	inactive
LNPEP	4	-0.11	66	61.2	inactive
ANGPTL3	1	-0.606	118	77.6	inactive
ANGPTL3	2	-0.156	74.1	66.5	inactive
ANGPTL3	3	-0.174	122	108	inactive
ANGPTL3	4	0.187	55.2	62.8	inactive
SGTA	1	-0.0971	90	84.2	inactive
SGTA	2	-0.139	90.1	81.9	inactive
SGTA	3	-0.0691	93	88.7	inactive
SGTA	4	-0.249	43.6	36.7	inactive
PSMD7	1	-0.389	7.75	5.91	inactive
PSMD7	2	-0.446	19.1	14	inactive
PSMD7	3	-0.282	8.53	7.02	inactive
DUSP18	1	-0.351	50.8	39.9	inactive
DUSP18	2	-0.0637	93.1	89.1	inactive
DUSP18	3	0.277	77.5	93.9	inactive
DUSP18	4	0.788	47.4	81.8	inactive
NEK2	1	-0.49	76.3	54.3	inactive
NEK2	2	-0.239	113	95.8	inactive
NEK2	3	-0.415	101	76	inactive
NEK2	4	0.143	54.4	60.1	inactive
OLFM1	1	0.466	50.3	69.5	inactive
OLFM1	2	0.184	30.2	34.3	inactive
OLFM1	3	-0.134	95.6	87.1	inactive
OLFM1	4	-0.322	109	87.4	inactive
BUB1B	1	-0.526	86.9	60.3	inactive
BUB1B	2	0.0311	59	60.3	inactive
BUB1B	3	-0.143	77	69.7	inactive
BUB1B	4	1.47	20.8	57.7	inactive
